Among the data in paper PMC4046919 are binding values, retold here.

Protein sequences, listed by entry. Tags and fused reporters are not part of them. Lines headed by an entry give the natural chain unless they say otherwise; changes in a name come on top. Chains listed by the source or under a name are the forms on record and can include a tag or linker.
nuclear myosin 1c (NM1), endogenous, mouse (mouse (endogenous in MEFs)) (Q9WTI7, form named): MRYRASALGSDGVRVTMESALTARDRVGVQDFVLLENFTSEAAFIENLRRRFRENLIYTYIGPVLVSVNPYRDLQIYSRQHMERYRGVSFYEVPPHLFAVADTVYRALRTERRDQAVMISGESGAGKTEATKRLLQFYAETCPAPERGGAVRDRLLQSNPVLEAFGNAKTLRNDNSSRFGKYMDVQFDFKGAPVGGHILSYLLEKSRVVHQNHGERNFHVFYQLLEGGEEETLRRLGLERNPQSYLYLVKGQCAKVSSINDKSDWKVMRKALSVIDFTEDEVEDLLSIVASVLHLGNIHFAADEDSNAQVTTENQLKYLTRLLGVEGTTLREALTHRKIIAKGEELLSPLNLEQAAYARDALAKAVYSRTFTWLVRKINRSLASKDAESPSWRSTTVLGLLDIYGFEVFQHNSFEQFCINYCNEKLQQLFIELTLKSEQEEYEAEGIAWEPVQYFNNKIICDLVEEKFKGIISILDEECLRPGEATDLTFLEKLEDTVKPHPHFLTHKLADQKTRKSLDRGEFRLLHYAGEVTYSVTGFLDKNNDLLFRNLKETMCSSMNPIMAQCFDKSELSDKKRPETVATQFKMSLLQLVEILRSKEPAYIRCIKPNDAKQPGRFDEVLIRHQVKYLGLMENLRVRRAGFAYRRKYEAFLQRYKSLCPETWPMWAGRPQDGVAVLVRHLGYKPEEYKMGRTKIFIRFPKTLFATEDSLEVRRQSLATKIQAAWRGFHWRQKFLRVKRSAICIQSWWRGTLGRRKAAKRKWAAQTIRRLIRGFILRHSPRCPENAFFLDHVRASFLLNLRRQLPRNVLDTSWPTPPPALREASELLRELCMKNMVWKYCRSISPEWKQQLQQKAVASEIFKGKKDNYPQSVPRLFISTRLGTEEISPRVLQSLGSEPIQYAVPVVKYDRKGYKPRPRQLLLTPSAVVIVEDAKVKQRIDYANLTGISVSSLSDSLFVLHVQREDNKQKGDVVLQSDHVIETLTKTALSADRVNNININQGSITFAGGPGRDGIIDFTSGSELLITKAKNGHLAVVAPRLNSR
UniProt Q80TP3: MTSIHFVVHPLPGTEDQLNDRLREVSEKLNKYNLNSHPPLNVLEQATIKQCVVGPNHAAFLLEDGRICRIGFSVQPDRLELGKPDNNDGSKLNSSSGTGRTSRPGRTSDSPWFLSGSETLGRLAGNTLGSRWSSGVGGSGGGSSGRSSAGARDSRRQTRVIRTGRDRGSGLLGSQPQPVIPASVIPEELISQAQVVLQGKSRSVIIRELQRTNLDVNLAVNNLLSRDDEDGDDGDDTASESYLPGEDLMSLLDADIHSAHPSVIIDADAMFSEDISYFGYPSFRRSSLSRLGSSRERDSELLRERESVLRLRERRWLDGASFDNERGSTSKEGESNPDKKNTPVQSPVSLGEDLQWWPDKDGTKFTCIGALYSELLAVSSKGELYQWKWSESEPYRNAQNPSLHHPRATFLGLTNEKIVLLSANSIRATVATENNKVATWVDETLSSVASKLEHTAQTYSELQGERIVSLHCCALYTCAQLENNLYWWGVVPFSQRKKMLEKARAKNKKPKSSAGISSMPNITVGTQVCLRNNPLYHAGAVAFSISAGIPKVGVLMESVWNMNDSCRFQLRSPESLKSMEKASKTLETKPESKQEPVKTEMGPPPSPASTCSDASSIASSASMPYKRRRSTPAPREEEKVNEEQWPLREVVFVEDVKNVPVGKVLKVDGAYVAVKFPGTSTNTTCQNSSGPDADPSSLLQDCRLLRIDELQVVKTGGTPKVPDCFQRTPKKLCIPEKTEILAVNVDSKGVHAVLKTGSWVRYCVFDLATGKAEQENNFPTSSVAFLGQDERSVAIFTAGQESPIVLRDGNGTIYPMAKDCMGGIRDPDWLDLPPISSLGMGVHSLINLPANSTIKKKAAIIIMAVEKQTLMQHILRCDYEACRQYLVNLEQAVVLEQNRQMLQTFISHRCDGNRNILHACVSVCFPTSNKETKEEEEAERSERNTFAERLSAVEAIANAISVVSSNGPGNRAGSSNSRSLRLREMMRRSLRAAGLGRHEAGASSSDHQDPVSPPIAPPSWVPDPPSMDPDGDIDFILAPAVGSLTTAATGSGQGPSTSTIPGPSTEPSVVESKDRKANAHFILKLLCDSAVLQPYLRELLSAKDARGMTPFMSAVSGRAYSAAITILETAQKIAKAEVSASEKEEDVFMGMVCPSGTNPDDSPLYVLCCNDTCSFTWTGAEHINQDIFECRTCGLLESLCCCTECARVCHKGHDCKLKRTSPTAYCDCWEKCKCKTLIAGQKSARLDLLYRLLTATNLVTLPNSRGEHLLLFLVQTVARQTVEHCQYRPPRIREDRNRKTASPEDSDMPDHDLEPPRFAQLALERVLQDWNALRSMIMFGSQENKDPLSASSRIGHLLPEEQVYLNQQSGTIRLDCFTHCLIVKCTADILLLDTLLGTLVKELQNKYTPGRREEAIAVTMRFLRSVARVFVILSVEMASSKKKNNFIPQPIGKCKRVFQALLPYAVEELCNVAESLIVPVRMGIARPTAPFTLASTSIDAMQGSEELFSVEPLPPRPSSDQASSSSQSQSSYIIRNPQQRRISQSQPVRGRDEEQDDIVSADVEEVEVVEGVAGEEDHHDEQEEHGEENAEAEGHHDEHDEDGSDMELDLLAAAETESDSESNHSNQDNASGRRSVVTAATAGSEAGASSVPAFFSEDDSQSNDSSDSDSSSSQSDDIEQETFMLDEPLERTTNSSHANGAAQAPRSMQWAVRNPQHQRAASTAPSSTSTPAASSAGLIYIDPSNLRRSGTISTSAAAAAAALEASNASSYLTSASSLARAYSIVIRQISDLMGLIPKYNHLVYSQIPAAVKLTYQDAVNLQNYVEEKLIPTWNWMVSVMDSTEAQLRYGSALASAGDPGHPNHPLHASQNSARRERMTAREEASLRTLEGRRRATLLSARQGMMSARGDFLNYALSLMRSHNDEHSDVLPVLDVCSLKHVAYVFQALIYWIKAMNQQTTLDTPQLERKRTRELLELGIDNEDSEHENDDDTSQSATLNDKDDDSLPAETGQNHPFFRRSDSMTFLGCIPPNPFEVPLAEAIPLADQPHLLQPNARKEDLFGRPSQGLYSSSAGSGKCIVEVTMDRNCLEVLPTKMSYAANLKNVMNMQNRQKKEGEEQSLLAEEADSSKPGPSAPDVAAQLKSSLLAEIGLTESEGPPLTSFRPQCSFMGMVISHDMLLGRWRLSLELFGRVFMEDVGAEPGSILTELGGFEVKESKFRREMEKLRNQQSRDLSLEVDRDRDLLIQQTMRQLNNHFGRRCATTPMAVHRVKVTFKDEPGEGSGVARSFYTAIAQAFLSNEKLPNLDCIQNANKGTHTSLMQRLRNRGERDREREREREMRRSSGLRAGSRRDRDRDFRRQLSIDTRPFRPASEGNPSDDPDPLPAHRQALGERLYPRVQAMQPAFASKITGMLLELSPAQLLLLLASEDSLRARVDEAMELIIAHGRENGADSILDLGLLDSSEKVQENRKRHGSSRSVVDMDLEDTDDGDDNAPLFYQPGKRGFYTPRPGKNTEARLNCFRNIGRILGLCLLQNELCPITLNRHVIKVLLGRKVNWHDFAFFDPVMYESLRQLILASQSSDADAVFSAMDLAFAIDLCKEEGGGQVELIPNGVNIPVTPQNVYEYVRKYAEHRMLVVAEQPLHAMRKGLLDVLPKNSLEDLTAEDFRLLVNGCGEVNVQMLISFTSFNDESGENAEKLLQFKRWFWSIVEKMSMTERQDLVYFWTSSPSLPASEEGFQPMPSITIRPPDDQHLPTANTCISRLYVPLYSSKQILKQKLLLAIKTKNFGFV

No constants are given. Whether binding was seen depends on the method and setting. In cells and extracts the contact can be indirect. These calls come from enrichment with a bait or labelling near it, and not all partners need be listed. For some of these results: A no says only that the protein was not detected with the bait.

In assay [1] the target is nuclear myosin 1c (NM1), endogenous, mouse (mouse (endogenous in MEFs)) (UniProt Q9WTI7). The assay can be described thus: affinity purification with mass spectrometry; nuclear lysates of untreated growing GSK3β+/+ MEFs; immunoprecipitation with antibodies to NM1; SDS gel, in-gel trypsin digestion, nLC-MS/MS.
For assay [2] the target is unchanged. The assay can be described thus: condition: only cells treated with MG132 (40 µM for 3 hrs at 37°C); affinity purification with mass spectrometry; nuclear lysates of GSK3β+/+ MEFs treated with MG132 (40 µM for 3 hrs at 37°C); immunoprecipitation with antibodies to NM1; SDS gel, in-gel trypsin digestion, nLC-MS/MS.

In the case of “E3 ligase UBR5, endogenous, mouse (from UniProt Q80TP3 1-2792) (enzyme)”, the binding result in assay [1] is listed as “binds”; in assay [2] it was “no binding”.

B1: F-box/WD repeat-containing protein 8 (Fbxw8), endogenous, mouse (protein, UniProt Q8BIA4 1-598)
chain: MDDHNLEEFRRHWQEELAQSQALRRRRRLEAGERRSPRRPEAGARGEPASGYLGLAQGLLEGAGRPPAPRPGRGGDRKDTSSRSRSPPDRDATEPEPLVDQLIRDLNELDDVPFFDVRLPYELAINIFQYLNRRELGLCAQVSKTWKVIAEDEVLWYRLCRQEGHLPHSRFSDYTCWKLILQECLAKEHTLRANWKNRKGAVSELEHVPDAVLCDVRSHDGVVIAGYTSGDVRVWDTRTWDYVAPFLESESEEEDPGMQPYVSFVRINSSLAVAAYEDGILNIWDLRTGRFPIFRFEHDARIQALALSQEKPIVATASAFDVVMLYPNEEGHWHVASEFEVQKLVDYLEIVPNTGRYPVAIATAGDLVYLLKADDSARTLHYVYGQPATCLDVSASQVAFGVKSLGWVYEGNKILVYSLEAERCLSKLGNALGDFTCVNIRDSPPNLMVSGNMDRRVRIHDLRSDKIALSLSAHQLGVSAVQMDDWKVVSGGEEGLVSVWDYRMNQKLWEVHSRHPVRYLSFNSHSLITANVPYEKVLRNSDLDNFACHRRHRGLIHAYEFAVDQLAFQSPLPVCRLPRDIMAGYSYDLALSFPHDSI
B1: the results for the binding entry in assay [1] and in assay [2] were “binds” and “no binding”, respectively.
